Test results published in publication PMC5414094.
No constants are given. Whether binding was seen depends on the method and setting. In cells and extracts the contact can be indirect. Some binding calls cover weakened binding; strength is not graded here. For some assays here: Sequences can lack the tags named with a protein.

Sequences of proteins named here, by UniProt entry; tags and fusion partners are left off.
UniProt Q03164: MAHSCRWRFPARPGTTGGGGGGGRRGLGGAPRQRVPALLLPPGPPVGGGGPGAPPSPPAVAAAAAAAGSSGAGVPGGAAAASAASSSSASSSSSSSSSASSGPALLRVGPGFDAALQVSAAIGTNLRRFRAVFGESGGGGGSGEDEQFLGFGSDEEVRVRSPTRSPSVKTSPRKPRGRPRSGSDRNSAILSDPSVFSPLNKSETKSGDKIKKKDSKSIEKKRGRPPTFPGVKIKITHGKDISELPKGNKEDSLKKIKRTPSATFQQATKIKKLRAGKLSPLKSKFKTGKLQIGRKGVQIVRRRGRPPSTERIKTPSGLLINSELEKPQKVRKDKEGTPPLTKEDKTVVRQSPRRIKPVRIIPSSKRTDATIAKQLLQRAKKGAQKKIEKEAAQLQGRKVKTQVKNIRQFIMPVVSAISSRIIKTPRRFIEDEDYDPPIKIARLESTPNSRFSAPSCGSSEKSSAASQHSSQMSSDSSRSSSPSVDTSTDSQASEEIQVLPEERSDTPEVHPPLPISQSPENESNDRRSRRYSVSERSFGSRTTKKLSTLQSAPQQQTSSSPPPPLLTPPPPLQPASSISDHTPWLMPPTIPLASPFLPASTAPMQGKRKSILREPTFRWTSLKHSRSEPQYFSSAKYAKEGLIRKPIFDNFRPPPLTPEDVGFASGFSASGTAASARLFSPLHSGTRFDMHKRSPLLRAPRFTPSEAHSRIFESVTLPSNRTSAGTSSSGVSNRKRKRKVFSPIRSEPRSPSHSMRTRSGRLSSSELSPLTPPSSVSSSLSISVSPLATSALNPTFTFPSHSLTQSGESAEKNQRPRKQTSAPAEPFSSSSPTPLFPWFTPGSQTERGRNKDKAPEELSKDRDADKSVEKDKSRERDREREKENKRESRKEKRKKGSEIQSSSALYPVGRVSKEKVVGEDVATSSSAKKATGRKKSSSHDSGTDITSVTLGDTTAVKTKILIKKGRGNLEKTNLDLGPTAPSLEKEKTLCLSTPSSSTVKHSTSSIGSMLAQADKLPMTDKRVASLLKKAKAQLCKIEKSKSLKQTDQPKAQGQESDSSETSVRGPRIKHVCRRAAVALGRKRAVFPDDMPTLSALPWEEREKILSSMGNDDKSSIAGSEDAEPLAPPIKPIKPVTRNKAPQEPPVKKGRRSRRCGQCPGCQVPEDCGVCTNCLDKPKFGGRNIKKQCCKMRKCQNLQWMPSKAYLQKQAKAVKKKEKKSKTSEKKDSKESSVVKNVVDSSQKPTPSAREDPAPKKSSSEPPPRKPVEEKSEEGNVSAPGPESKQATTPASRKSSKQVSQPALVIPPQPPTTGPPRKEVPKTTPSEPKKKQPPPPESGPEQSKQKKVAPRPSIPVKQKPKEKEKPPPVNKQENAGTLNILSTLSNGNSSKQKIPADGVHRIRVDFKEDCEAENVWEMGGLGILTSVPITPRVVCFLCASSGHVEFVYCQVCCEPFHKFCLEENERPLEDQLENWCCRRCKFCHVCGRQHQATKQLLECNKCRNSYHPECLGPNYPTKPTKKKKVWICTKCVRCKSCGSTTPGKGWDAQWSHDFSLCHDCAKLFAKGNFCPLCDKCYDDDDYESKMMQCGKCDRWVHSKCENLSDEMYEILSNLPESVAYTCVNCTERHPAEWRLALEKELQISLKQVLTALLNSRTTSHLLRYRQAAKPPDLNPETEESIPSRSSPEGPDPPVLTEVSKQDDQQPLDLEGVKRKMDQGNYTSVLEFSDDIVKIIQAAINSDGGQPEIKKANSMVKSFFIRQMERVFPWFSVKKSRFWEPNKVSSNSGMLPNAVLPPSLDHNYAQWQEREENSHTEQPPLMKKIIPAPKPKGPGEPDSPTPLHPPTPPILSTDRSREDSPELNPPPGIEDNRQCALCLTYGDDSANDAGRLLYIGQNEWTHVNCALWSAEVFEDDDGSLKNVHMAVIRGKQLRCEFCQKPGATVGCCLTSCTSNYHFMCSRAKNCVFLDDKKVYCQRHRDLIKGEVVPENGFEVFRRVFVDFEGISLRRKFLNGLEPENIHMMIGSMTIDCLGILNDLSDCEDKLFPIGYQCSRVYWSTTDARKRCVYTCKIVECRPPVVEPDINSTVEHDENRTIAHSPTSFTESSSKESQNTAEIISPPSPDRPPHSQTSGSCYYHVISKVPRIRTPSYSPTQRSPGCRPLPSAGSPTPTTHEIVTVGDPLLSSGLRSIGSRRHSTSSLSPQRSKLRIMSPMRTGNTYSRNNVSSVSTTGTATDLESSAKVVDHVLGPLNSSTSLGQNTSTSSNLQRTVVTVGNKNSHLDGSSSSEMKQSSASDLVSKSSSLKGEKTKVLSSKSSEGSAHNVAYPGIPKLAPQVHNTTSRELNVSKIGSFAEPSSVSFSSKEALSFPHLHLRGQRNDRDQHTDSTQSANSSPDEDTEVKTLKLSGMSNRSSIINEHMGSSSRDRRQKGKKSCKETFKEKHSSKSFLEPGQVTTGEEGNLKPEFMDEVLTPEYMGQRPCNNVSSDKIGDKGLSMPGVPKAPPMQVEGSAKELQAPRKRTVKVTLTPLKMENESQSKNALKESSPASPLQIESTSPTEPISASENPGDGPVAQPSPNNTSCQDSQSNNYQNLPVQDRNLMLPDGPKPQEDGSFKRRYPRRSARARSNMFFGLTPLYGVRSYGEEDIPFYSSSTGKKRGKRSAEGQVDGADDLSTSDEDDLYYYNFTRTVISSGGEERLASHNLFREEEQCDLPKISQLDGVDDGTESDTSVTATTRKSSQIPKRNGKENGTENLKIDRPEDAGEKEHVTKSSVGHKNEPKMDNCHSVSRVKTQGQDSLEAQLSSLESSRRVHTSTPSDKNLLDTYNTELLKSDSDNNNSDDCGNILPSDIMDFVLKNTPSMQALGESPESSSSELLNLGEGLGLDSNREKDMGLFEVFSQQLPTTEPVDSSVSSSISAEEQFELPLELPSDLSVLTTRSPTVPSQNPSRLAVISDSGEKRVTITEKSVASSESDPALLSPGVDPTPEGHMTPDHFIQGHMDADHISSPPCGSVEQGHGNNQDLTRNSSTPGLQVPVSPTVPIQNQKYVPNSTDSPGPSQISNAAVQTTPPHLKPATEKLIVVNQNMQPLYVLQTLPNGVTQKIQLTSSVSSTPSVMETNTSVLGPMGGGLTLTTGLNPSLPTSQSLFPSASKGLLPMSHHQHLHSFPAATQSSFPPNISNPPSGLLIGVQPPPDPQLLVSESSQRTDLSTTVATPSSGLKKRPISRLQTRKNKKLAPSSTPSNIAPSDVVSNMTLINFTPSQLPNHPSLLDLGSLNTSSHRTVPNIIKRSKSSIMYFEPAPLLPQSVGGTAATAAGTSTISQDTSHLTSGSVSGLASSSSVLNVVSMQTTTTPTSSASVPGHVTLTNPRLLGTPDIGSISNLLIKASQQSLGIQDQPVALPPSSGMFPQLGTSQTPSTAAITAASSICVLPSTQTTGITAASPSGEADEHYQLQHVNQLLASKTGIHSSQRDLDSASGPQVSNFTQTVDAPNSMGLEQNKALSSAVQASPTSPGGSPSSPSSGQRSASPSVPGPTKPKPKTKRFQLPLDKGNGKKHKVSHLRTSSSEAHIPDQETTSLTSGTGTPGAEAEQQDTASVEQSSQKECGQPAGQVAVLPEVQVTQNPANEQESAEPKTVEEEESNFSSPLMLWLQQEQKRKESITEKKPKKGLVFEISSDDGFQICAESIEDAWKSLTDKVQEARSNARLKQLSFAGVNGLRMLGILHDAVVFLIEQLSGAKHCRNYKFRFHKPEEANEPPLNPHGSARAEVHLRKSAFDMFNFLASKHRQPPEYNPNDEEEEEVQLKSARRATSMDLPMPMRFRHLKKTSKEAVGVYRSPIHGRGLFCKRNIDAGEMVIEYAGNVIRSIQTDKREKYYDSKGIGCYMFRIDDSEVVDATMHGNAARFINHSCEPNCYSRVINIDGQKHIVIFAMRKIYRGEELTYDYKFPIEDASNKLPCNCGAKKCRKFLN
UniProt Q7LBC6: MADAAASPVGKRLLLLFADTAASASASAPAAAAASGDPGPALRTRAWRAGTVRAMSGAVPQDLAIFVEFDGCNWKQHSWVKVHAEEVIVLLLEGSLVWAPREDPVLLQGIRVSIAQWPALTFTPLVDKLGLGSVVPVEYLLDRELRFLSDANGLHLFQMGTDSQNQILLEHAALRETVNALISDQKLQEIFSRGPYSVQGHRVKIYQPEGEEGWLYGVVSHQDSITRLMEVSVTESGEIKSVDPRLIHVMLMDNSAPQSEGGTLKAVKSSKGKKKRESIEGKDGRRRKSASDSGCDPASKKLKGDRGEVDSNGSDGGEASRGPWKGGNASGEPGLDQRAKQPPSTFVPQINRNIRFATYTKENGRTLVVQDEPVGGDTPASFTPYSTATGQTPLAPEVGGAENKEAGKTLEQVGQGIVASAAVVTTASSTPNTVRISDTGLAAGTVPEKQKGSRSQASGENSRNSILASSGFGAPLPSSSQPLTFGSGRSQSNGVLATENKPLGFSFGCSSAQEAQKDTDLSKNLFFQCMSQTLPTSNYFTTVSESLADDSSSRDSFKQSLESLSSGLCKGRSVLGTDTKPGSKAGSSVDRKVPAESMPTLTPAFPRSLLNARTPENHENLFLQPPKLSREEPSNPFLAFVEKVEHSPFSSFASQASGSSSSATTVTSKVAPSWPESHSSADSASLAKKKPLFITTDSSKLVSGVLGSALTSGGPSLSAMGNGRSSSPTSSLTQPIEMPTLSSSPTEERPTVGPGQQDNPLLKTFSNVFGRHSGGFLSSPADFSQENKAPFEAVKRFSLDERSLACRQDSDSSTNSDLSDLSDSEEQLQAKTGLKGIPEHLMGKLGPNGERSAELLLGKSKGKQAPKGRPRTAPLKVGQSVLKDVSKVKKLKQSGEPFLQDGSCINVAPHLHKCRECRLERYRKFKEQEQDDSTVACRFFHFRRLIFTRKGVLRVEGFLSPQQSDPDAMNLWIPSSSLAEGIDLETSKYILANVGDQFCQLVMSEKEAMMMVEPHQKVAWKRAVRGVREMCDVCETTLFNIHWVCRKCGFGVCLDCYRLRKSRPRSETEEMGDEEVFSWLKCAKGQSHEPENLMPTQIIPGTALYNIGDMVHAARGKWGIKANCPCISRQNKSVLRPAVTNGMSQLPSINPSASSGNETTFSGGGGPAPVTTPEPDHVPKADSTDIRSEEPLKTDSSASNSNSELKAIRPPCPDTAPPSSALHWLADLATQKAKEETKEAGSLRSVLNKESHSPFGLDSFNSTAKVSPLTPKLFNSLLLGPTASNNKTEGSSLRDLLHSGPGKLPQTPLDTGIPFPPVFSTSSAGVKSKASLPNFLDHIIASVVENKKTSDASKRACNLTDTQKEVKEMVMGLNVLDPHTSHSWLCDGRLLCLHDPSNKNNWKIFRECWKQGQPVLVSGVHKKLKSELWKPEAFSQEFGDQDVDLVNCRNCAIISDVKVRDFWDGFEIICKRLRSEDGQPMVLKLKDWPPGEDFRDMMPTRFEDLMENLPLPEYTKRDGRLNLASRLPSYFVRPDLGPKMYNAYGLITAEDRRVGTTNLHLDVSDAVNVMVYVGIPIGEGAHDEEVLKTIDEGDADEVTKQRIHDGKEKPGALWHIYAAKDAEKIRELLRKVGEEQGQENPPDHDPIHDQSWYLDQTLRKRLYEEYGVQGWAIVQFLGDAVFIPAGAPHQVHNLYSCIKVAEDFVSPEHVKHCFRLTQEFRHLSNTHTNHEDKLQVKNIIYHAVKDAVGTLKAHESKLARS
UniProt P35222: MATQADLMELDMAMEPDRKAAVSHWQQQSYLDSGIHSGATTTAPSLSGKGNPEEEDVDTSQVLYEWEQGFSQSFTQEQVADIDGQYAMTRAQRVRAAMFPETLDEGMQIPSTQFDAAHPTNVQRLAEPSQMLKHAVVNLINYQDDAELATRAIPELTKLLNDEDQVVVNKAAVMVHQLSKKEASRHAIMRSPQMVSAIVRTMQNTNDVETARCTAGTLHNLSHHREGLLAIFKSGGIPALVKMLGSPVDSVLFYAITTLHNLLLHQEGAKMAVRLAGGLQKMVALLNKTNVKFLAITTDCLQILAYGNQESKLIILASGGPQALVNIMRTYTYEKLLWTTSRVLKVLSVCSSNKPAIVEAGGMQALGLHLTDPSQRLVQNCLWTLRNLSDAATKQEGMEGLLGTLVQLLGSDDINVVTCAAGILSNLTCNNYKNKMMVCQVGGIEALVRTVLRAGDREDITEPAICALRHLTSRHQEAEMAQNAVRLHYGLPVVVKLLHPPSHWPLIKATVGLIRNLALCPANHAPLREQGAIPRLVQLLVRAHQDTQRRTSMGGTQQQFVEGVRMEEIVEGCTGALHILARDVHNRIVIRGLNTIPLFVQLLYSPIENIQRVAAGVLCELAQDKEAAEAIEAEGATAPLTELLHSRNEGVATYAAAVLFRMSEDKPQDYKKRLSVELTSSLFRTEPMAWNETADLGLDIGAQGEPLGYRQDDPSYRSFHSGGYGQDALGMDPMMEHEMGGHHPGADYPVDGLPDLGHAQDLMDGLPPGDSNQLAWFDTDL

What was measured:
[1] = target: MLL1 (293 T cells) (human (endogenous in 293 T)) (UniProt Q03164); assay: co-IP; MLL1 precipitated (control IgG beside it) from 293 T cells expressing Flag-tagged KDM3A or HA-tagged KDM3B
[2] = target: endogenous MLL1 (HCT116 cells) (human (endogenous in HCT116)) (UniProt Q03164); assay: co-IP; endogenous MLL1 with endogenous KDM3A and KDM3B in HCT116 cells
[3] = target: endogenous KDM3B (293 T cells) (human (endogenous in 293 T)) (UniProt Q7LBC6); assay: co-IP; endogenous proteins; antibodies against endogenous KDM3A and KDM3B; nuclear extract of 293 T cells, with Wnt3a stimulation
[4] = target: T1, endogenous KDM3A (293 T cells) (human (endogenous in 293 T)) (UniProt Q9Y4C1); assay: as above
T1 sequence: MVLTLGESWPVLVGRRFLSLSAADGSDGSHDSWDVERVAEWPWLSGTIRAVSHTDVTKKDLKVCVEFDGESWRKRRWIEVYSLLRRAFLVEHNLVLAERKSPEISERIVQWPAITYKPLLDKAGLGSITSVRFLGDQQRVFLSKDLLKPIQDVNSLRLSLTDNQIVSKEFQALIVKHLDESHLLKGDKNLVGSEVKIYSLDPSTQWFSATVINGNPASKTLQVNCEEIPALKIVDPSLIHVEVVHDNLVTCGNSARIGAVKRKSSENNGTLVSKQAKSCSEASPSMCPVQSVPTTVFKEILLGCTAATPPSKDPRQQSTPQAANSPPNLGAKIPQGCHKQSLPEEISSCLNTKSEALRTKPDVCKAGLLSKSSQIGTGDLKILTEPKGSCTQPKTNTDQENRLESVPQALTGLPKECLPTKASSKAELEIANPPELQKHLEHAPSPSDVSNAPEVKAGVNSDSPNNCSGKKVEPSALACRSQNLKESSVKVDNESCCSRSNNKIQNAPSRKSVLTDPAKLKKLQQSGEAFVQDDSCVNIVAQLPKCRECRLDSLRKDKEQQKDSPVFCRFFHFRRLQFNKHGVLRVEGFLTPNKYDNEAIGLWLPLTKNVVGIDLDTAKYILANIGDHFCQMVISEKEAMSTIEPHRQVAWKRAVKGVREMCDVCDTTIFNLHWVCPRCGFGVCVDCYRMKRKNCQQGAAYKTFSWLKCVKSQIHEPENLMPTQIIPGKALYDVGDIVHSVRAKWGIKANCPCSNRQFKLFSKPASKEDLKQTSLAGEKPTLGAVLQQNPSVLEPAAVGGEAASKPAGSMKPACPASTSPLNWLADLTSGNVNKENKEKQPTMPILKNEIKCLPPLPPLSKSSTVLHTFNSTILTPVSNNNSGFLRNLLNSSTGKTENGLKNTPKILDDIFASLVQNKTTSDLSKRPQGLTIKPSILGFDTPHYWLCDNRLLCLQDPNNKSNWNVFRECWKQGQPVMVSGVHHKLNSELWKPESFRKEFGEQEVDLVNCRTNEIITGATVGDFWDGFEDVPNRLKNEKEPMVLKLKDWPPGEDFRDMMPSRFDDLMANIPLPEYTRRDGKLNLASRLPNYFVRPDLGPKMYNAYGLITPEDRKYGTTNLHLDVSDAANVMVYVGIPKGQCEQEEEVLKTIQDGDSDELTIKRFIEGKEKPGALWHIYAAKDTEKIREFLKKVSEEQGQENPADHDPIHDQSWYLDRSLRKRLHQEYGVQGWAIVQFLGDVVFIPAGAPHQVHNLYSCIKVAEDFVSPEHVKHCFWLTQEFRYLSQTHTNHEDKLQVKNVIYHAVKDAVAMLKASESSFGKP

[5] = target: recombinant glutathione S-transferase fusion β-catenin (UniProt P35222); assay: pull-down; GST pull-down: recombinant GST fusion β-catenin with in vitro translated KDM3A or KDM3B; only the target purified

Question: “HA-tagged KDM3B (from UniProt Q7LBC6 1-1761) (enzyme)” was tested. Which binding [1] did it give?
Answer: binds

Question: “endogenous KDM3B (HCT116 cells) (from UniProt Q7LBC6 1-1761) (enzyme)” was tested. Which binding [2] did it give?
Answer: binds

Question: With “endogenous β-catenin (293 T cells) (from UniProt P35222 1-781)” as the molecule, how does the binding [3] read?
Answer: binds

Question: And the binding [4]?
Answer: binds

Question: Which binding [5] does the source give for “in vitro translated KDM3B (from UniProt Q7LBC6 1-1761) (enzyme)” here?
Answer: binds

B1: endogenous KDM3A (HCT116 cells) (enzyme, UniProt Q9Y4C1 1-1321)
chain: MVLTLGESWPVLVGRRFLSLSAADGSDGSHDSWDVERVAEWPWLSGTIRAVSHTDVTKKDLKVCVEFDGESWRKRRWIEVYSLLRRAFLVEHNLVLAERKSPEISERIVQWPAITYKPLLDKAGLGSITSVRFLGDQQRVFLSKDLLKPIQDVNSLRLSLTDNQIVSKEFQALIVKHLDESHLLKGDKNLVGSEVKIYSLDPSTQWFSATVINGNPASKTLQVNCEEIPALKIVDPSLIHVEVVHDNLVTCGNSARIGAVKRKSSENNGTLVSKQAKSCSEASPSMCPVQSVPTTVFKEILLGCTAATPPSKDPRQQSTPQAANSPPNLGAKIPQGCHKQSLPEEISSCLNTKSEALRTKPDVCKAGLLSKSSQIGTGDLKILTEPKGSCTQPKTNTDQENRLESVPQALTGLPKECLPTKASSKAELEIANPPELQKHLEHAPSPSDVSNAPEVKAGVNSDSPNNCSGKKVEPSALACRSQNLKESSVKVDNESCCSRSNNKIQNAPSRKSVLTDPAKLKKLQQSGEAFVQDDSCVNIVAQLPKCRECRLDSLRKDKEQQKDSPVFCRFFHFRRLQFNKHGVLRVEGFLTPNKYDNEAIGLWLPLTKNVVGIDLDTAKYILANIGDHFCQMVISEKEAMSTIEPHRQVAWKRAVKGVREMCDVCDTTIFNLHWVCPRCGFGVCVDCYRMKRKNCQQGAAYKTFSWLKCVKSQIHEPENLMPTQIIPGKALYDVGDIVHSVRAKWGIKANCPCSNRQFKLFSKPASKEDLKQTSLAGEKPTLGAVLQQNPSVLEPAAVGGEAASKPAGSMKPACPASTSPLNWLADLTSGNVNKENKEKQPTMPILKNEIKCLPPLPPLSKSSTVLHTFNSTILTPVSNNNSGFLRNLLNSSTGKTENGLKNTPKILDDIFASLVQNKTTSDLSKRPQGLTIKPSILGFDTPHYWLCDNRLLCLQDPNNKSNWNVFRECWKQGQPVMVSGVHHKLNSELWKPESFRKEFGEQEVDLVNCRTNEIITGATVGDFWDGFEDVPNRLKNEKEPMVLKLKDWPPGEDFRDMMPSRFDDLMANIPLPEYTRRDGKLNLASRLPNYFVRPDLGPKMYNAYGLITPEDRKYGTTNLHLDVSDAANVMVYVGIPKGQCEQEEEVLKTIQDGDSDELTIKRFIEGKEKPGALWHIYAAKDTEKIREFLKKVSEEQGQENPADHDPIHDQSWYLDRSLRKRLHQEYGVQGWAIVQFLGDVVFIPAGAPHQVHNLYSCIKVAEDFVSPEHVKHCFWLTQEFRYLSQTHTNHEDKLQVKNVIYHAVKDAVAMLKASESSFGKP
Question: B1 was tested. Which binding [2] did it give?
Answer: binds

B2: in vitro translated KDM3A (enzyme, UniProt Q9Y4C1 1-1321)
chain: MVLTLGESWPVLVGRRFLSLSAADGSDGSHDSWDVERVAEWPWLSGTIRAVSHTDVTKKDLKVCVEFDGESWRKRRWIEVYSLLRRAFLVEHNLVLAERKSPEISERIVQWPAITYKPLLDKAGLGSITSVRFLGDQQRVFLSKDLLKPIQDVNSLRLSLTDNQIVSKEFQALIVKHLDESHLLKGDKNLVGSEVKIYSLDPSTQWFSATVINGNPASKTLQVNCEEIPALKIVDPSLIHVEVVHDNLVTCGNSARIGAVKRKSSENNGTLVSKQAKSCSEASPSMCPVQSVPTTVFKEILLGCTAATPPSKDPRQQSTPQAANSPPNLGAKIPQGCHKQSLPEEISSCLNTKSEALRTKPDVCKAGLLSKSSQIGTGDLKILTEPKGSCTQPKTNTDQENRLESVPQALTGLPKECLPTKASSKAELEIANPPELQKHLEHAPSPSDVSNAPEVKAGVNSDSPNNCSGKKVEPSALACRSQNLKESSVKVDNESCCSRSNNKIQNAPSRKSVLTDPAKLKKLQQSGEAFVQDDSCVNIVAQLPKCRECRLDSLRKDKEQQKDSPVFCRFFHFRRLQFNKHGVLRVEGFLTPNKYDNEAIGLWLPLTKNVVGIDLDTAKYILANIGDHFCQMVISEKEAMSTIEPHRQVAWKRAVKGVREMCDVCDTTIFNLHWVCPRCGFGVCVDCYRMKRKNCQQGAAYKTFSWLKCVKSQIHEPENLMPTQIIPGKALYDVGDIVHSVRAKWGIKANCPCSNRQFKLFSKPASKEDLKQTSLAGEKPTLGAVLQQNPSVLEPAAVGGEAASKPAGSMKPACPASTSPLNWLADLTSGNVNKENKEKQPTMPILKNEIKCLPPLPPLSKSSTVLHTFNSTILTPVSNNNSGFLRNLLNSSTGKTENGLKNTPKILDDIFASLVQNKTTSDLSKRPQGLTIKPSILGFDTPHYWLCDNRLLCLQDPNNKSNWNVFRECWKQGQPVMVSGVHHKLNSELWKPESFRKEFGEQEVDLVNCRTNEIITGATVGDFWDGFEDVPNRLKNEKEPMVLKLKDWPPGEDFRDMMPSRFDDLMANIPLPEYTRRDGKLNLASRLPNYFVRPDLGPKMYNAYGLITPEDRKYGTTNLHLDVSDAANVMVYVGIPKGQCEQEEEVLKTIQDGDSDELTIKRFIEGKEKPGALWHIYAAKDTEKIREFLKKVSEEQGQENPADHDPIHDQSWYLDRSLRKRLHQEYGVQGWAIVQFLGDVVFIPAGAPHQVHNLYSCIKVAEDFVSPEHVKHCFWLTQEFRYLSQTHTNHEDKLQVKNVIYHAVKDAVAMLKASESSFGKP
Question: How did the binding [5] turn out when B2 was run?
Answer: binds

B3: Flag-tagged KDM3A (enzyme, UniProt Q9Y4C1 1-1321)
chain: MVLTLGESWPVLVGRRFLSLSAADGSDGSHDSWDVERVAEWPWLSGTIRAVSHTDVTKKDLKVCVEFDGESWRKRRWIEVYSLLRRAFLVEHNLVLAERKSPEISERIVQWPAITYKPLLDKAGLGSITSVRFLGDQQRVFLSKDLLKPIQDVNSLRLSLTDNQIVSKEFQALIVKHLDESHLLKGDKNLVGSEVKIYSLDPSTQWFSATVINGNPASKTLQVNCEEIPALKIVDPSLIHVEVVHDNLVTCGNSARIGAVKRKSSENNGTLVSKQAKSCSEASPSMCPVQSVPTTVFKEILLGCTAATPPSKDPRQQSTPQAANSPPNLGAKIPQGCHKQSLPEEISSCLNTKSEALRTKPDVCKAGLLSKSSQIGTGDLKILTEPKGSCTQPKTNTDQENRLESVPQALTGLPKECLPTKASSKAELEIANPPELQKHLEHAPSPSDVSNAPEVKAGVNSDSPNNCSGKKVEPSALACRSQNLKESSVKVDNESCCSRSNNKIQNAPSRKSVLTDPAKLKKLQQSGEAFVQDDSCVNIVAQLPKCRECRLDSLRKDKEQQKDSPVFCRFFHFRRLQFNKHGVLRVEGFLTPNKYDNEAIGLWLPLTKNVVGIDLDTAKYILANIGDHFCQMVISEKEAMSTIEPHRQVAWKRAVKGVREMCDVCDTTIFNLHWVCPRCGFGVCVDCYRMKRKNCQQGAAYKTFSWLKCVKSQIHEPENLMPTQIIPGKALYDVGDIVHSVRAKWGIKANCPCSNRQFKLFSKPASKEDLKQTSLAGEKPTLGAVLQQNPSVLEPAAVGGEAASKPAGSMKPACPASTSPLNWLADLTSGNVNKENKEKQPTMPILKNEIKCLPPLPPLSKSSTVLHTFNSTILTPVSNNNSGFLRNLLNSSTGKTENGLKNTPKILDDIFASLVQNKTTSDLSKRPQGLTIKPSILGFDTPHYWLCDNRLLCLQDPNNKSNWNVFRECWKQGQPVMVSGVHHKLNSELWKPESFRKEFGEQEVDLVNCRTNEIITGATVGDFWDGFEDVPNRLKNEKEPMVLKLKDWPPGEDFRDMMPSRFDDLMANIPLPEYTRRDGKLNLASRLPNYFVRPDLGPKMYNAYGLITPEDRKYGTTNLHLDVSDAANVMVYVGIPKGQCEQEEEVLKTIQDGDSDELTIKRFIEGKEKPGALWHIYAAKDTEKIREFLKKVSEEQGQENPADHDPIHDQSWYLDRSLRKRLHQEYGVQGWAIVQFLGDVVFIPAGAPHQVHNLYSCIKVAEDFVSPEHVKHCFWLTQEFRYLSQTHTNHEDKLQVKNVIYHAVKDAVAMLKASESSFGKP
Question: For B3, which binding [1] is on record?
Answer: binds
